Results are given in words; binding and its absence hold for the method and conditions named. Binding seen in cells or lysates may run through a third protein. Some entries that bind do so weakly or less than the wild type. Where a sequence is shown, tags or fusion partners need not be part of it.
Tests used:
EGFP-ORP8 = biological target: T1, EGFP-ORP8 (UniProt Q9BZF1); test: co-IP; GFP-trap agarose beads on lysates of HeLa cells co-transfected with FLAG-Sec22b and EGFP-ORP8, EGFP-ORP5 or EGFP; lysis buffer 50 mM Tris, 120 mM NaCl, 40 mM HEPES, 0.5% digitonin, 0.5% CHAPS, pH 7.36; 1 h at 4 °C; blots with anti-GFP and anti-FLAG
T1 sequence: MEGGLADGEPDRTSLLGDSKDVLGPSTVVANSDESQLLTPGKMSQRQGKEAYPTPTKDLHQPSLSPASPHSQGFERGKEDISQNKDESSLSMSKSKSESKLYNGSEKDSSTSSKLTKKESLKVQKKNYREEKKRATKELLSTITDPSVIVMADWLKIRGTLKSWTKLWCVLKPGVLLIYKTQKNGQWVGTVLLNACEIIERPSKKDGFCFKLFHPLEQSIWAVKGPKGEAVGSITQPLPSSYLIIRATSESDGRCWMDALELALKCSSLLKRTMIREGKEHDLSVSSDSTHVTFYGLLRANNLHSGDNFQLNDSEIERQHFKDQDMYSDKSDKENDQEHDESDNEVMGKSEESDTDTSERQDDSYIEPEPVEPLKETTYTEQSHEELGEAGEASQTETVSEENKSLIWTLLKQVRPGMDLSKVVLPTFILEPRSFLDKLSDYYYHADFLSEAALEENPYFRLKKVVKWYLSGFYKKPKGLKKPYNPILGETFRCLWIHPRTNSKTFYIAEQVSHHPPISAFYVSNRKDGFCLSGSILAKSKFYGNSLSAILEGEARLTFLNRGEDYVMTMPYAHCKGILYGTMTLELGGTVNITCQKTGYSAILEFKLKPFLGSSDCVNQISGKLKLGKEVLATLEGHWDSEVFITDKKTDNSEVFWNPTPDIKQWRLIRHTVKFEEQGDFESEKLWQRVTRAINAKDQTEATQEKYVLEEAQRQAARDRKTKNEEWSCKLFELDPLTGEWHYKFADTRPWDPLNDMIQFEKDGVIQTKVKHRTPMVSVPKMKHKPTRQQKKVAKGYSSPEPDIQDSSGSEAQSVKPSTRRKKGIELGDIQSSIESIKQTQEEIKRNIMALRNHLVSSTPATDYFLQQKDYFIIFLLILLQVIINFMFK

Protein sequences, listed by entry. Tags and fused reporters are not part of them.
UniProt O75396: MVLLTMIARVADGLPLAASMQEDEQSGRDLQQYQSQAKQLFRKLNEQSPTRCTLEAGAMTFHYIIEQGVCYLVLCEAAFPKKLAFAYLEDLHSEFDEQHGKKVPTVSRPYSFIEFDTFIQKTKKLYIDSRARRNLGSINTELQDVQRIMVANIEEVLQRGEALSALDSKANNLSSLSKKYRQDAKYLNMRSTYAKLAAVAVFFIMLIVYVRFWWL

EGFP-ORP5 = biological target: T2, EGFP-ORP5 (UniProt Q9H0X9); test: as above
T2 sequence: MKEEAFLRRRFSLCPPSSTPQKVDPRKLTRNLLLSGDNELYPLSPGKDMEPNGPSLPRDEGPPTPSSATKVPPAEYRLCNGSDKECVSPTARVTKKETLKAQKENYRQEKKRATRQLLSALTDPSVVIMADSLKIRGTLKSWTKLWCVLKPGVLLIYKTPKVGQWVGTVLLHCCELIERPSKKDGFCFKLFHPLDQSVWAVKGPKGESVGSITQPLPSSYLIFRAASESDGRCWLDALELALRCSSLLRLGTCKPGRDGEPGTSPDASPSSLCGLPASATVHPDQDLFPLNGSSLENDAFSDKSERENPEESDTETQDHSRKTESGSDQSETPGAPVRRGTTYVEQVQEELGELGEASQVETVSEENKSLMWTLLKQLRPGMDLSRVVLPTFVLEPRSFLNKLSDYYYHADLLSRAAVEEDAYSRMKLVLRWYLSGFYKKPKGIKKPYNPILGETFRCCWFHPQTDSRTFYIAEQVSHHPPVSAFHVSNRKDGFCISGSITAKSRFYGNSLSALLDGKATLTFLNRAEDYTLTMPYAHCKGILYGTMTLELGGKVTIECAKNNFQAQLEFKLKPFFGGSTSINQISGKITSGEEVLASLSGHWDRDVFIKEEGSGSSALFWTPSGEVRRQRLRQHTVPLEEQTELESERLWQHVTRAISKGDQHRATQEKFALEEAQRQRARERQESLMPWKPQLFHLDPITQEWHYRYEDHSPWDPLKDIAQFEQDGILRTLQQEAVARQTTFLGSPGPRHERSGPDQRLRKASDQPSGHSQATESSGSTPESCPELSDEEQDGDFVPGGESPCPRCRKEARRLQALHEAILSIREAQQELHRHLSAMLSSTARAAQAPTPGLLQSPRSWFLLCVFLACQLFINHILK

binding (EGFP-ORP8): binds | binding (EGFP-ORP5): binds
Substance: FLAG-Sec22b (from UniProt O75396 1-215)

From PMC10550925
